Values from PubChem BioAssay AID1224828 (NIAID, 2016).
Purpose: 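Find genes required for NF-kappaB p65 moving into the nucleus after LPS in mouse macrophages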 (primary screen). Cells: mouse RAW264.7 G9 macrophage reporter cells (GFP-p65, Tnf promoter-mCherry). Reagents: siRNA pool against mouse genes, 100 nM. Duration: 2 days siRNA transfection, then 40 min LPS before fixation. Conditions: LPS (Salmonella minnesota R595) at 10 ng/ml. Read-out: 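Microscopy ratio of nuclear to perinuclear-ring GFP-p65 signal, scaled to the plate median; gene score is the average of two replicate robust z-scores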. Direction: p65 translocation robust z-score: higher = more nuclear NF-kappaB p65 after LPS than the plate median; nuclear/cytoplasmic p65 ratio: higher = more nuclear NF-kappaB p65. Rule for the call: 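Called active when z exceeds 3.3 or falls under -1.56 (median of Tlr4 controls), giving activity score of at least 50; no calls for control wells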. Meaning of the calls: active = hit (p65 shift raised or lowered); inactive = no clear change.
In all, the deposit lists about 17,000 reagents; shown is a random part of them. In the full data, 762 (4.5%) are marked active. 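Active calls include both raised and lowered p65 entry, mostly lowered; wells with fewer than 50 cells lack a z-score.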 Raw values vary from plate to plate and are shown uncorrected. Unmarked entries are inactive. Reagents against one gene are numbered here. Reagent sequences are not shown.

Target gene | reagent no. | p65 translocation robust z-score | nuclear/cytoplasmic p65 ratio, rep 1 | nuclear/cytoplasmic p65 ratio, rep 2 | low cell count flag
Slc25a13 | 1 | 0.61 | 1.61 | 1.6 | enough cells to score
Pdk1 | 1 | – | 1.8 | 1.28 | fewer than 50 cells per well; well left out of scoring
Erh | 1 | 2.19 | 1.8 | 1.61 | enough cells to score
Adam18 | 1 | -1.18 | 1.51 | 1.38 | enough cells to score
Copb2 | 1 | – | 1.5 | 1.71 | fewer than 50 cells per well; well left out of scoring
Gstm4 | 1 | 1.22 | 1.86 | 1.69 | enough cells to score
Csta2 | 1 | -0.35 | 1.55 | 1.57 | enough cells to score
Rarres2 | 1 | -1.12 | 1.39 | 1.33 | enough cells to score
Ptpn4 | 1 | 0.2 | 1.53 | 1.43 | enough cells to score
Tfe3 | 1 | 0.58 | 1.63 | 1.57 | enough cells to score
Amdhd2 | 1 | -0.19 | 1.59 | 1.58 | enough cells to score
Magee1 | 1 | -0.73 | 1.65 | 1.4 | enough cells to score
Slc24a4 | 1 | 0.02 | 1.43 | 1.24 | enough cells to score
Hps4 | 1 | -1.07 | 1.42 | 1.25 | enough cells to score
Dmbx1 | 1 | – | 1.8 | 1.45 | fewer than 50 cells per well; well left out of scoring
Fgfbp1 | 1 | -0.81 | 1.3 | 1.3 | enough cells to score
Csgalnact1 | 1 | – | 1.19 | 0.969 | fewer than 50 cells per well; well left out of scoring
Ebi3 | 1 | 0.05 | 1.49 | 1.36 | enough cells to score
Adamts20 | 1 | -0.46 | 1.51 | 1.59 | enough cells to score
Alkbh2 | 1 | -0.28 | 1.63 | 1.52 | enough cells to score
Psme3ip1 | 1 | 0.1 | 1.41 | 1.29 | enough cells to score
Drg1 | 1 | 1.41 | 1.61 | 1.53 | enough cells to score
Pip4k2c | 1 | -1.79 (active) | 1.35 | 1.15 | enough cells to score
Rftn1 | 1 | – | 1.34 | 1.28 | fewer than 50 cells per well; well left out of scoring
Ifi204 | 1 | -0.17 | 1.43 | 1.34 | enough cells to score
Cct6a | 1 | -0.54 | 1.42 | 1.28 | enough cells to score
Myl12a | 1 | -1.95 (active) | 1.04 | 1.03 | enough cells to score
Dbn1 | 1 | – | 1.23 | 1.58 | fewer than 50 cells per well; well left out of scoring
Or6c8 | 1 | 0.27 | 1.43 | 1.3 | enough cells to score
Or6c8 | 2 | – | 1.41 | 1.18 | fewer than 50 cells per well; well left out of scoring
Sipa1l3 | 1 | – | 1.42 | 1.48 | fewer than 50 cells per well; well left out of scoring
Elovl1 | 1 | -1.35 | 1.13 | 1.2 | enough cells to score
Mrps28 | 1 | 0.77 | 1.88 | 1.73 | enough cells to score
Sptlc1 | 1 | -1.12 | 1.39 | 1.39 | enough cells to score
Dleu7 | 1 | 0.88 | 1.55 | 1.7 | enough cells to score
Fth1 | 1 | -0.8 | 1.36 | 1.24 | enough cells to score
Pitpnm2 | 1 | – | 1.57 | 2.66 | fewer than 50 cells per well; well left out of scoring
A430057O09 | 1 | – | 1.25 | 1.23 | fewer than 50 cells per well; well left out of scoring
Zfp260 | 1 | 0.05 | 1.48 | 1.2 | enough cells to score
Pcbp2 | 1 | -0.38 | 1.41 | 1.35 | enough cells to score
Slc16a2 | 1 | 0.28 | 1.49 | 1.25 | enough cells to score
Ppp1r9a | 1 | 1.31 | 1.6 | 1.65 | enough cells to score
Brinp1 | 1 | -0.86 | 1.42 | 1.79 | enough cells to score
Plpbp | 1 | 1.58 | 1.61 | 1.37 | enough cells to score
Zfp998 | 1 | – | 1.11 | 0.914 | fewer than 50 cells per well; well left out of scoring
Kifc2 | 1 | – | 1.31 | 1.24 | fewer than 50 cells per well; well left out of scoring
Ctnnb1 | 1 | 2.18 | 1.99 | 1.45 | enough cells to score
Prf1 | 1 | -0.71 | 1.43 | 1.29 | enough cells to score
Gkn1 | 1 | – | 1.17 | 1.62 | fewer than 50 cells per well; well left out of scoring
Lamp5 | 1 | -1.02 | 1.11 | 1.33 | enough cells to score
Rnf146 | 1 | -1.28 | 1.23 | 1.29 | enough cells to score
BC035947 | 1 | -0.57 | 1.56 | 1.67 | enough cells to score
Bax | 1 | -1.12 | 1.36 | 1.52 | enough cells to score
Slc15a3 | 1 | 1.97 | 1.65 | 1.5 | enough cells to score
Or51k1 | 1 | 0.42 | 1.5 | 1.32 | enough cells to score
Tceal6 | 1 | -1.69 (active) | 1.28 | 1.24 | enough cells to score
Ralgps1 | 1 | 1.54 | 1.59 | 1.38 | enough cells to score
Spta1 | 1 | 0.67 | 1.5 | 1.8 | enough cells to score
Dnajb3 | 1 | 0.04 | 1.41 | 1.42 | enough cells to score

Individual results from the list.
Dleu7, nuclear/cytoplasmic p65 ratio, rep 2 → 1.7
Result for Plpbp under “nuclear/cytoplasmic p65 ratio, rep 2”: 1.37
Under “nuclear/cytoplasmic p65 ratio, rep 2”, Psme3ip1 shows 1.29
Value for Spta1 under “low cell count flag”: enough cells to score
For “p65 translocation robust z-score”, Brinp1 is entered as -0.86
For “nuclear/cytoplasmic p65 ratio, rep 1”, Zfp260 reads 1.48
